The target of experiment [1] is T1, DJ-1 (rat (endogenous in H9c2)) (UniProt O88767).
T1 sequence: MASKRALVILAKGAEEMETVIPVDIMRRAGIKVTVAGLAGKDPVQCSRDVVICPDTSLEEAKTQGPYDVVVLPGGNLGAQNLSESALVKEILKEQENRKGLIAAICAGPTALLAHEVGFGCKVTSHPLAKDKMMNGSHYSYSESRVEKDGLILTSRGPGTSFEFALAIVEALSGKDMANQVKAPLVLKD
In words: co-IP; H9c2 mitochondrial lysates (H/R, HPC + H/R, pFlag-DJ-1 + H/R, each with or without LV-shGrp75 knock-down); IP with anti-DJ-1 antibody or IgG, blot with anti-NDUFA4 or anti-ND1.

The chains behind the UniProt entries cited, without tags or fusion partners. Where a name states a change or a piece, a line headed by the entry shows the natural chain unless it says otherwise.
UniProt A6IDY9: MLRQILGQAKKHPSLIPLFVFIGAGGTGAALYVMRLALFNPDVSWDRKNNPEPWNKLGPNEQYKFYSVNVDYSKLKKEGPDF

Experiment [2] addresses T2, Flag-DJ-1 (from plasmid pFlag-DJ-1) (UniProt O88767).
T2 sequence: T1 sequence
Described as above.

These are yes or no findings as the source states them, for the method shown. Binding seen in cells or lysates may run through a third protein. Binding calls can cover weak binding; strength is not graded here. For some assays here: Where a sequence is shown, tags or fusion partners need not be part of it.

For the substance “NDUFA4 subunit of mitochondrial complex I (from UniProt A6IDY9)”, the binding entry in experiment [1] and in experiment [2] was “binds” throughout.

Source of the values: PMC6983240.
